Structures can show the parent of a compound that is named as a salt. ± gives the standard deviation of the averaged measurements. This is one part of the list. The data scatter; read single values as rough.
Experiments:
hAMSC donor 1 [1] = assay: Hoechst total cell count ratio vs vehicle control; higher = more cells (less toxicity)
hAMSC donor 2 [2] = assay: as above
hAMSC donor 1 [3] = assay: transgenic luciferase activity (RLU/mg protein) fold change vs vehicle control (ratio); higher = more transgene expression
hAMSC donor 2 [4] = assay: as above
hAMSC donor 1 [5] = assay: transfection efficiency (EGFP+ cells / Hoechst count) fold change vs vehicle control (ratio); hAMSC are human adipose-derived mesenchymal stem cells given an EGFP-luciferase plasmid by lipofection; higher = enhanced transfection
hAMSC donor 2 [6] = assay: as above
[7] = priming compound concentration 0.2 µM
[8] = priming compound concentration 1.7 µM
[9] = priming compound concentration 13 µM

Structure (SMILES) | Hoechst total cell count ratio (hAMSC donor 1 [1]; [7]) | Hoechst total cell count ratio (hAMSC donor 1 [1]; [8]) | Hoechst total cell count ratio (hAMSC donor 1 [1]; [9]) | Hoechst total cell count ratio (hAMSC donor 2 [2]; [7]) | Hoechst total cell count ratio (hAMSC donor 2 [2]; [8]) | Hoechst total cell count ratio (hAMSC donor 2 [2]; [9]) | transgenic luciferase activity (hAMSC donor 1 [3]; [8]) | transgenic luciferase activity (hAMSC donor 1 [3]; [9]) | transgenic luciferase activity (hAMSC donor 2 [4]; [8]) | transgenic luciferase activity (hAMSC donor 2 [4]; [9]) | transfection efficiency (hAMSC donor 1 [5]; [7]) | transfection efficiency (hAMSC donor 1 [5]; [8]) | transfection efficiency (hAMSC donor 1 [5]; [9]) | transfection efficiency (hAMSC donor 2 [6]; [7]) | transfection efficiency (hAMSC donor 2 [6]; [8]) | transfection efficiency (hAMSC donor 2 [6]; [9]) | transgenic luciferase activity (hAMSC donor 1 [3]; [7]) | transgenic luciferase activity (hAMSC donor 2 [4]; [7])
NS(=O)(=O)Cc1noc2ccccc12 [Zonisamide] | 1.22 ± 0.18 | 0.74 ± 0.063 | 0.989 ± 0.14 | 1.5 ± 0.84 | 0.707 ± 0.062 | 0.993 ± 0.24 | 0.434 ± 0.28 | 0.739 ± 0.23 | 0.641 ± 0.042 | 0.543 ± 0.098 | 1.39 ± 0.2 | 1.5 ± 0.24 | 1.58 ± 0.44 | 1.02 ± 0.11 | 1.24 ± 0.17 | 0.993 ± 0.2 | – | –
COc1ccc(CCN(C)CCCC(C#N)(c2ccc(OC)c(OC)c2)C(C)C)cc1OC (stereo unspecified) [Verapamil hydrochloride] | – | – | – | – | – | – | 0.259 ± 0.094 | 0.679 ± 0.11 | 0.858 ± 0.066 | 0.641 ± 0.15 | 1.3 ± 0.82 | 1.14 ± 0.51 | 1.41 ± 0.062 | 0.951 ± 0.15 | 0.798 ± 0.17 | 0.818 ± 0.28 | – | –
NC1CCN(c2cccc(Cl)n2)CC1 | 1.56 ± 0.28 | 1.06 ± 0.024 | 1.54 ± 0.16 | 1.15 ± 0.019 | 1.07 ± 0.2 | 1.3 ± 0.12 | – | 0.522 ± 0.35 | 0.602 ± 0.11 | – | 1.18 ± 0.36 | 1.23 ± 0.095 | 1.01 ± 0.16 | 1.1 ± 0.05 | 1.56 ± 0.38 | 1.13 ± 0.27 | 0.743 ± 0.42 | 0.635 ± 0.095
CC(C)NCC(O)COc1ccc(CC(N)=O)cc1 (stereo unspecified) [Atenolol] | 1.06 ± 0.23 | 1.34 ± 0.2 | 1.48 ± 0.12 | 1.22 ± 0.042 | 0.756 ± 0.018 | 0.855 ± 0.18 | 1.75 ± 0.23 | – | 0.789 ± 0.069 | 0.509 ± 0.025 | 1.05 ± 0.13 | 1.18 ± 0.088 | 1.07 ± 0.2 | 0.905 ± 0.12 | 1.67 ± 0.071 | 1.4 ± 0.15 | 0.474 ± 0.16 | –
CC(=O)[C@H]1CC[C@H]2[C@@H]3C[C@H](C)C4=CC(=O)CC[C@]4(C)[C@H]3[C@@H](O)C[C@]12C [Medrysone] | 1.08 ± 0.086 | 1.27 ± 0.086 | 1.08 ± 0.12 | 1.33 ± 0.29 | 2.1 ± 0.1 | 3.75 ± 0.24 | 5.59 ± 2.4 | – | 1.1 ± 0.21 | 0.219 ± 0.079 | 1.41 ± 0.41 | 1.24 ± 0.26 | 0.937 ± 0.12 | 1.57 ± 0.34 | 1.04 ± 0.14 | 1.21 ± 0.12 | – | 0.902 ± 0.16
OCCN1C[C@H](O)[C@@H](O)[C@H](O)[C@H]1CO [Miglitol] | 1.01 ± 0.1 | 1.03 ± 0.11 | 1.03 ± 0.066 | 1.38 ± 0.14 | 1.25 ± 0.17 | 1.28 ± 0.26 | 0.888 ± 0.63 | 0.984 ± 0.29 | 0.676 ± 0.086 | 0.46 ± 0.31 | 1.44 ± 0.29 | 1.42 ± 0.24 | 1.39 ± 0.32 | 1.04 ± 0.34 | 1.01 ± 0.077 | 0.9 ± 0.12 | – | –
CCCC(=O)Nc1ccc(OCC(O)CNC(C)C)c(C(C)=O)c1 (stereo unspecified) [Acebutolol hydrochloride] | 1.16 ± 0.045 | 1.04 ± 0.012 | 1.11 ± 0.23 | 1.19 ± 0.079 | 1.04 ± 0.081 | 0.795 ± 0.14 | – | 0.878 ± 0.29 | 0.739 ± 0.18 | – | 0.813 ± 0.098 | 1.02 ± 0.21 | 0.921 ± 0.2 | 0.868 ± 0.18 | 1.23 ± 0.13 | 1.35 ± 0.18 | 0.792 ± 0.074 | 0.833 ± 0.22

Reference: the supplement of paper PMC7238544
